Measured values as given in publication PMC5633884.
Results are given in words; binding and its absence hold for the method and conditions named. In cells and extracts the contact can be indirect. Some binding calls cover weakened binding; strength is not graded here.

Key:
[1] = target: KIBRA (human (endogenous in PNT1B, PC3 and DU145)), Q8IX03; assay: co-IP; endogenous proteins; PNT1B, PC3 and DU145 cells lysed with RIPA; 100 ug total protein with 5 ug specific antibody and 40 ul protein G-sepharose beads on ice overnight; washed three times with chilled PBS; western blot; details: remark: other sources report otherwise
[2] = target: KIBRA (human (endogenous in PNT1B, PC3 and DU145)), Q8IX03; assay: co-IP; membranous and cytoplasmic protein extracts taken apart; PC3-con, PC3-shPar3 (stable Par3 knockdown) and PC3-Par3OE (Par3 overexpression) cells; western blot; details: remark: other sources report otherwise

binding [1]: binds | binding [2]: binds
B1: FRMD6, Q96NE9 1-622 (protein)
chain: MNKLNFHNNRVMQDRRSVCIFLPNDESLNIIINVKILCHQLLVQVCDLLRLKDCHLFGLSVIQNNEHVYMELSQKLYKYCPKEWKKEASKVRQYEVTWGIDQFGPPMIIHFRVQYYVENGRLISDRAARYYYYWHLRKQVLHSQCVLREEAYFLLAAFALQADLGNFKRNKHYGKYFEPEAYFPSWVVSKRGKDYILKHIPNMHKDQFALTASEAHLKYIKEAVRLDDVAVHYYRLYKDKREIEASLTLGLTMRGIQIFQNLDEEKQLLYDFPWTNVGKLVFVGKKFEILPDGLPSARKLIYYTGCPMRSRHLLQLLSNSHRLYMNLQPVLRHIRKLEENEEKKQYRESYISDNLDLDMDQLEKRSRASGSSAGSMKHKRLSRHSTASHSSSHTSGIEADTKPRDTGPEDSYSSSAIHRKLKTCSSMTSHGSSHTSGVESGGKDRLEEDLQDDEIEMLVDDPRDLEQMNEESLEVSPDMCIYITEDMLMSRKLNGHSGLIVKEIGSSTSSSSETVVKLRGQSTDSLPQTICRKPKTSTDRHSLSLDDIRLYQKDFLRIAGLCQDTAQSYTFGCGHELDEEGLYCNSCLAQQCINIQDAFPVKRTSKYFSLDLTHDEVPEFVV
